Screen size: about 330,000 compounds; about 7,700 (2.3%) were called active. This list was built around the results that the source calls inconclusive (neither active nor inactive); the mix of calls is not that of the screen. The call rests on the fitted dose curve; in most records, active means well fitted inhibition curve with a large enough effect; inconclusive means small, poorly fitted or top-dose-only effect, or effect the other way; inactive means flat fitted curve, though single readings scatter. Where the call is inconclusive, the potency comes from a doubtful curve fit.
assay: qHTS screen for small molecules that inhibit ELG1-dependent DNA repair in human embryonic kidney (HEK293T) cells expressing luciferase-tagged ELG1; settings: HEK293T ELG1-luciferase reporter, luminescence, 16 h, DNA damage induced by 5-fluorouridine; series mostly up to 46.1 µM; further: nearly all actives have a fitted effect of over 55% in size
Summary of the method: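 5-Fluorouridine DNA damage + compound/DMSO, 2,000 cells/well, 16 h, 37 °C/5% CO2. ONE-Glo, 30 min RT, luminescence. Readout = decrease in reporter signal.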
Potency means the concentration at half of the fitted maximal effect.

Question: With `Cc1cc(O)c(CN2CC=C(c3ccccc3)CC2)cc1C(C)C` as the compound, how does the Potency read?
Answer: inconclusive: 11.6 µM [inhibitor, partial curve, poor fit]

Question: Which Potency does the source give for `CN1C(=O)C(=Cc2ccc(N3CCOCC3)o2)C(=O)N(C)C1=O` here?
Answer: inconclusive: 18.4 µM [activator, single point]

Question: With `CCOc1ccc(NC(=O)C(=S)NC2CCCCC2)cc1` as the compound, how does the Potency read?
Answer: inconclusive: 18.3 µM [activator, single point]

Question: Which Potency does the source give for `O=[N+]([O-])c1cccc(CN2CCN(Cc3ccc(Br)cc3)CC2)c1` here?
Answer: inconclusive: 7.3 µM [inhibitor, partial curve]

Question: With `COc1ccccc1CCNCc1cc2c(cc1[N+](=O)[O-])OCO2` as the compound, how does the Potency read?
Answer: inconclusive: 4.47 µM [inhibitor, single point]

Question: With `c1ccc2c(CCNCc3ccc4c(c3)OCO4)c[nH]c2c1` as the compound, how does the Potency read?
Answer: inconclusive: 18.4 µM [inhibitor, single point]

Question: For `CC(C)CNC(=O)c1c(N)n(Cc2ccco2)c2nc3ccccc3nc12`, which Potency is on record?
Answer: active: 25.9 µM

Question: For `CCN1CCN(CC(c2ccccc2)c2ccccc2)CC1`, which Potency is on record?
Answer: inactive

Question: With `COc1ccc(NC(=O)CCCn2c(=O)oc3ccccc32)cc1Cl` as the compound, how does the Potency read?
Answer: inconclusive: 18.4 µM [activator, partial curve]

Question: With `CN(Cc1ccccc1)C(=O)c1cccc(NC(=O)Cc2ccc([N+](=O)[O-])cc2)c1` as the compound, how does the Potency read?
Answer: inconclusive: 18.3 µM [inhibitor, single point]

Question: For `O=C(c1cc2c(s1)CCCC2)N1CCC2(CC1)OCCO2`, which Potency is on record?
Answer: inconclusive: 14.1 µM [activator, partial curve, poor fit]

Question: For `COc1cc(/C=C2\C(=O)NC(=O)N(CCc3ccc(F)cc3)C2=O)ccc1O`, which Potency is on record?
Answer: inconclusive: 20.6 µM [activator, single point]

Question: For `CCC(=NCCC(c1ccccc1)c1ccccc1)c1c(O)n(C)c(=O)n(C)c1=O`, which Potency is on record?
Answer: inconclusive: 18.4 µM [inhibitor, partial curve]

Question: For `CCCOP(=O)(OCCC)C(Nc1ccc(C(C)C)cc1)c1ccc([N+](=O)[O-])cc1` (stereo not given), which Potency is on record?
Answer: inconclusive: 32.6 µM [inhibitor, partial curve, poor fit]

Question: Which Potency does the source give for `Fc1ccc(C[n+]2c(-c3ccccc3)cc(-c3ccccc3)cc2-c2ccccc2)cc1` here?
Answer: inconclusive: 31.6 µM [inhibitor, single point]

Question: For `N/C(=N\N=C/c1ccc(-c2ccc(O)c(C(=O)O)c2)o1)N[N+](=O)[O-]`, which Potency is on record?
Answer: inactive

Question: With `COC(=O)C1=C(c2cccc(OCc3ccccc3)c2)C[C@@H]2CC[C@H]1N2C(=O)NCc1cccc(F)c1` as the compound, how does the Potency read?
Answer: inconclusive: 20.6 µM [inhibitor, single point]

Question: Which Potency does the source give for `COc1ccc(CCNC(=O)C(=O)NCC2OCCN2S(=O)(=O)c2ccc(Cl)cc2)cc1` (stereo not given) here?
Answer: inconclusive: 29.1 µM [inhibitor, single point]

Question: For `COc1ccc(C(=O)C2CCCN(C3CSCCSC3)C2)c(C)c1` (stereo not given), which Potency is on record?
Answer: inconclusive: 23.1 µM [inhibitor, single point]

Question: For `COC(=O)C1=C(c2ccc(F)cc2F)C[C@@H]2CC[C@H]1N2C(=O)NC(C)C`, which Potency is on record?
Answer: inconclusive: 25.9 µM [activator, single point]

Question: With `CCCCCn1c(=O)c(C(=O)Nc2nc3ccccc3[nH]2)c(O)c2ccccc21` as the compound, how does the Potency read?
Answer: inconclusive: 29.1 µM [inhibitor, single point]

Question: With `C#C[C@]1(O)CCC2C3CCC4=C/C(=N/OCC(=O)NC(C)C(=O)NC(CCSC)C(=O)O)CC[C@]4(C)C3CC[C@@]21C` (stereo not given in full) as the compound, how does the Potency read?
Answer: active: 8.2 µM

Question: With `O=C(CCl)NCC1CCCO1` (stereo not given) as the compound, how does the Potency read?
Answer: inactive

Question: Which Potency does the source give for `CCOc1ccc(N2C(=O)/C(=C\c3cccs3)C(=O)NC2=S)cc1` here?
Answer: inconclusive: 18.3 µM [activator, single point]

Question: Which Potency does the source give for `CCOc1ccc(C2CC(c3c(O)n(C)c(=O)n(C)c3=O)=NN2)cc1` (stereo not given) here?
Answer: inconclusive: 5.8 µM [activator, full curve]

Question: For `CC1CCCN(CC(=O)N2CCCc3ccccc32)C1` (stereo not given), which Potency is on record?
Answer: inconclusive: 32.6 µM [activator, partial curve, poor fit]

Question: For `O=C1NC(=O)N(c2ccc(Br)cc2)C(=O)/C1=C/c1ccsc1`, which Potency is on record?
Answer: inconclusive: 5.17 µM [activator, full curve, poor fit]

Question: Which Potency does the source give for `Cc1ccsc1C(=O)C1CCCN(Cc2cccn2-c2ccccn2)C1` (stereo not given) here?
Answer: inactive

Question: With `CC(C)(C)c1ccc(OC(=O)N2CCCCC2)cc1` as the compound, how does the Potency read?
Answer: inconclusive: 16.4 µM [activator, partial curve]

Question: With `CC(Cc1ccccc1)NC(=O)/C=C/C(=O)O` (stereo not given) as the compound, how does the Potency read?
Answer: inactive

Question: Which Potency does the source give for `c1ccc(CN2CCN(Cc3ccc4ccccc4c3)CC2)cc1` here?
Answer: inactive

Question: With `C=CCN1C(=O)/C(=C/c2cccs2)C(=O)NC1=S` as the compound, how does the Potency read?
Answer: inconclusive: 29.1 µM [inhibitor, single point]

Question: Which Potency does the source give for `O=c1[nH]c(=S)n(-c2ccc(Cl)cc2)c(O)c1C=Nc1ccc(N2CCOCC2)cc1` here?
Answer: inactive

Question: Which Potency does the source give for `O=C(/C=C/c1ccc2c(c1)OCO2)c1c(O)n(CCc2ccccc2)c(=O)[nH]c1=O` here?
Answer: inconclusive: 29.1 µM [inhibitor, partial curve, poor fit]

Question: Which Potency does the source give for `CCN1CCN(c2ccc(N)cc2)CC1` here?
Answer: inactive

Question: Which Potency does the source give for `CCOC(=O)c1cccc(NS(=O)(=O)c2ccc(NC(C)=O)cc2)c1` here?
Answer: active: 4.61 µM

Question: With `CN1CCN(c2nc3ccccc3c(=O)n2-c2ccccc2)CC1` as the compound, how does the Potency read?
Answer: inactive

Question: For `O=P(C(c1ccc2c(c1)OCO2)N1CCOCC1)(N1CCOCC1)N1CCOCC1` (stereo not given), which Potency is on record?
Answer: inactive

Question: For `COc1ccccc1CC(=O)Nc1ccc2c(c1)OC1(CCCC1)O2`, which Potency is on record?
Answer: inconclusive: 3.26 µM [activator, single point]

Question: With `CN1CCN(c2ccc(Cl)cc2N)CC1` as the compound, how does the Potency read?
Answer: inactive

Question: With `COc1ccc(N2C(=O)/C(=C/c3ccc(N(C)C)o3)C(=O)NC2=S)cc1` as the compound, how does the Potency read?
Answer: inconclusive: 20.6 µM [activator, partial curve]

Question: With `CCCNC(=O)N1[C@H]2CC[C@@H]1C(C(=O)OC)=C(c1ccc(F)cc1F)C2` as the compound, how does the Potency read?
Answer: inactive

Question: For `CCCCCn1c(=O)c(C(=O)Nc2ccccc2N)c(O)c2ccccc21`, which Potency is on record?
Answer: inactive

Question: With `O=P1(NCCCn2cc[n+](Cc3nc4ccccc4[nH]3)c2)C=C(c2ccccc2)OC(c2ccccc2)=C1` as the compound, how does the Potency read?
Answer: inactive

Question: For `C[C@]12CCC(=O)C=C1CC[C@@H]1C2[C@H](O)C[C@]2(C)C(=O)CCC12` (stereo not given in full), which Potency is on record?
Answer: inactive

Question: With `O=C1CC(N2CCC(n3c(=O)[nH]c4ccccc43)CC2)C(=O)N1Cc1ccccc1` (stereo not given) as the compound, how does the Potency read?
Answer: inconclusive: 29.1 µM [inhibitor, single point]

Question: With `CCOc1cccc(CNCCc2c(C)[nH]c3ccc(OC(F)(F)F)cc23)c1O` as the compound, how does the Potency read?
Answer: inconclusive: 10.3 µM [inhibitor, partial curve, poor fit]

Question: For `Nc1c(C(=O)NCc2ccco2)c2nc3ccccc3nc2n1Cc1ccccc1`, which Potency is on record?
Answer: inconclusive: 23.1 µM [inhibitor, partial curve]

Question: Which Potency does the source give for `COC1=CC=C2[C@H]3Cc4ccc(OC)c5c4[C@@]2(CCN3C)C1O5` (stereo not given in full) here?
Answer: inactive

Question: For `COc1ccc(/C=C2\C(=N\O)C3CCN2CC3)cc1`, which Potency is on record?
Answer: inconclusive: 20.6 µM [activator, single point]

Question: For `Oc1ccc(Br)cc1CN1CCN(c2ccccc2)CC1`, which Potency is on record?
Answer: inactive

Question: With `CC(=O)c1ccc(NC(=O)CSc2nc(=O)cc(N)n2-c2ccccc2)cc1` as the compound, how does the Potency read?
Answer: inconclusive: 18.3 µM [activator, single point]

Question: For `O=C1NC(=O)N(c2ccc(F)cc2)C(=O)/C1=C/c1ccc2c(c1)CCCN2Cc1ccccc1`, which Potency is on record?
Answer: inconclusive: 20.6 µM [activator, single point]

Question: With `Cc1ccc(NC(=O)O/N=C/c2cccc([N+](=O)[O-])c2)cc1` as the compound, how does the Potency read?
Answer: inconclusive: 20.6 µM [activator, single point]

Question: For `CN1C(=O)C(c2ccc([N+](=O)[O-])cc2[N+](=O)[O-])C(=O)N(C)C1=O`, which Potency is on record?
Answer: inactive

Question: For `COc1ccc(CCNCc2ccc(C)s2)cc1OC`, which Potency is on record?
Answer: inactive

Question: With `CN1CCN(c2ccc3nccnc3c2)CC1` as the compound, how does the Potency read?
Answer: inconclusive: 29.1 µM [activator, single point]

Question: Which Potency does the source give for `CNC(=S)NC1CC2CCCC(C1)N2CC(C)C` (stereo not given) here?
Answer: inactive

Question: Which Potency does the source give for `COc1ccccc1NS(=O)(=O)c1cc(NC(=O)c2ccc(Cl)nc2)ccc1N1CCCC1` here?
Answer: active: 16.4 µM

Question: For `O=S1(=O)N(CCN2CC=C(c3c[nH]c4cc(F)ccc34)CC2)c2cccc3c2N1CCC3`, which Potency is on record?
Answer: inconclusive: 20.6 µM [inhibitor, single point]

Question: With `COc1ccc(CCn2c(O)c(C=Nc3ccc(F)cc3)c(=O)[nH]c2=O)cc1OC` as the compound, how does the Potency read?
Answer: inconclusive: 18.3 µM [inhibitor, single point]

Question: Which Potency does the source give for `COc1cc(C(=O)Nc2ccc(Br)cc2C(=O)c2ccccc2Cl)cc(OC)c1OC` here?
Answer: inactive

Question: For `Cc1ccsc1CNCCc1ccc(F)cc1`, which Potency is on record?
Answer: inactive

Question: Which Potency does the source give for `COC(=O)C1=C(c2ccc(F)cc2OCc2ccccc2)C[C@@H]2CC[C@H]1N2C(=O)NCc1ccc2c(c1)OCO2` here?
Answer: inconclusive: 14.6 µM [inhibitor, partial curve]

Question: For `CN(C)C(=O)Oc1ccc2ccccc2c1Cl`, which Potency is on record?
Answer: inconclusive: 16.4 µM [activator, partial curve]

Question: Which Potency does the source give for `c1ccc2c(c1)[nH]c1cnccc12` here?
Answer: inconclusive: 4.11 µM [inhibitor, partial curve, poor fit]

Question: With `CC(C)(C)c1ccc(C(=O)C2CCCN(Cc3ccon3)C2)cc1` (stereo not given) as the compound, how does the Potency read?
Answer: inconclusive: 18.3 µM [activator, partial curve]

Question: With `Cc1cc(-c2ccccc2)cc(-c2ccccc2)[n+]1CCc1ccccc1` as the compound, how does the Potency read?
Answer: inconclusive: 12.6 µM [inhibitor, single point]

Question: With `Clc1cccc(Cl)c1Cn1nnc(N2CCCC2)n1` as the compound, how does the Potency read?
Answer: inconclusive: 13 µM [activator, partial curve]

Question: For `CC(=O)n1cc(C=C2C(=O)NC(=O)NC2=O)c2ccccc21`, which Potency is on record?
Answer: inconclusive: 23.1 µM [activator, single point]

Reference: PubChem BioAssay AID504467 (National Center for Advancing Translational Sciences (NCATS), 2011)
